Assay results reported in US7122651B1, “Nucleic acid molecules encoding opioid growth factor receptors” (priority 1998, dated 2006).
Some entries share one result that the patent states for a list of compounds. For some of these results: At least one compound was matched to its structure with a doubt left.

What was measured:
[1] = tested on: rat OGFr 12-GST fusion protein; assay: Specific competition of 12-GST fusion protein binding by classical opioid receptor ligands; conditions: ligand range 10^−10 to 10^−3 M; no competitive binding observed
[2] = target: T1, PANC-1 nuclear (P1) homogenates (Homo sapiens, UniProt Q9NZT2); assay: Binding of [^3H]-[Met^5]-enkephalin to PANC-1 nuclear homogenates (saturation and characterization); conditions: cation salt at 50, 100, or 200 mM
T1 construct: host or cells: PANC-1; nuclear (P1) homogenates, and P2, P3 and S3 fractions in the fractionation study
T1 sequence (Q9NZT2 1-677): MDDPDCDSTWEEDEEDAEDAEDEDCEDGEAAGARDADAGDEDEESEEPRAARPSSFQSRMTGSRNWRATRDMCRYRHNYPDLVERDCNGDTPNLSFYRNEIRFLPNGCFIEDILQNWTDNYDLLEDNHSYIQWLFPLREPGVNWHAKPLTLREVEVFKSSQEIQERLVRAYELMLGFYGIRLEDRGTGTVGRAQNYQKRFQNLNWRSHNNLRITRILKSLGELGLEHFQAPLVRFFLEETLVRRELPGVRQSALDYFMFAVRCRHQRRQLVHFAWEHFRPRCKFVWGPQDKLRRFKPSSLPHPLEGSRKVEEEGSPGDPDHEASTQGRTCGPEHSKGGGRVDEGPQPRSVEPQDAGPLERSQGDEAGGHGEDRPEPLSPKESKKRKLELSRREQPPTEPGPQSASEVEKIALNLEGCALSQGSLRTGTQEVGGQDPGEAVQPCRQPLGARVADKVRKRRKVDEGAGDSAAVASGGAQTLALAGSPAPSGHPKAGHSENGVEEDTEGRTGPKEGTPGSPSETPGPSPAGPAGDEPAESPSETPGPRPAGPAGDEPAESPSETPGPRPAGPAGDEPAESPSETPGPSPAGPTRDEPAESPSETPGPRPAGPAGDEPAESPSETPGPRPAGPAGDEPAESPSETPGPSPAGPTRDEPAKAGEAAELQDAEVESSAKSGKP
Protocol: Cell culture. PANC-1, Mia PaCa-2, BxPC-3, and Capan-1 cell lines were obtained from the American Type Culture Collection (Manassas, Va.). […] Panc-1 cells between passages 62–74 were used for the characterization studies.
Preparation of protein fractions. Cell cultures were harvested by scraping of the flasks, and cells were pelleted by centrifugation. The washed pellet was homogenized (Polytron, setting 5, 2×10 sec) in a 1:20 (wt/vol) solution of cold 50 mM Tris-HCl with 0.1 mg/ml bacitracin, 1 mg/ml leupeptin, 6 nM thiorphan, 1 mM EGTA, and 3.5 mM PMSF (pH 7.4) at 4° C.; this buffer is termed Tris/all.
Receptor binding assays. Homogenates of nuclear protein were diluted with Tris/all to the appropriate protein concentration and incubated at room temperature (22° C.) for 20 min to remove endogenous peptides. Aliquots of protein were resuspended to 0.95 ml and incubated with agitation with radioactive ligand. […] Filters were rinsed with ice-cold Tris/all buffer, dried at 60° C. for 1 hr and counted by liquid scintillation spectrometry (Beckman LS-2800). […] Protein concentrations were determined by the BioRad method with g-globulin as the standard.
Analysis and statistics. Receptor binding data were analyzed with either the Lundon I (Saturation Isotherm Binding Analysis) computer program (Lundon Software, Cleveland, Ohio) or GraphPad Prism software. […]

Molecule	competitive binding for radiolabeled [Met^5]-enkephalin [1]	reduction of specific radioactive binding of [^3H]-[Met^5]-enkephalin [2] [%]
DPDPE [[D-Pen^2, Pen^5]-enkephalin]	> 10^3 M	–
[Ca+2].[Cl-].[Cl-] [CaCl2]	–	≤ 85
Dynorphin A1-8 (YGGFLRRI) [κ receptor ligand]	> 10^3 M	–
C[C@@H](NC(=O)[C@@H](N)Cc1ccc(O)cc1)C(=O)NCC(=O)N(C)[C@@H](Cc1ccccc1)C(=O)NCCO [DAMGO, [D-Ala^2, N-Me-Phe^4, Gly^5-ol]-enkephalin]	> 10^3 M	–
